The results in this text go back to PMC10091876.

The assay deals with T1, HA-tagged Calhm2 (UniProt Q8VEC4).
T1 sequence: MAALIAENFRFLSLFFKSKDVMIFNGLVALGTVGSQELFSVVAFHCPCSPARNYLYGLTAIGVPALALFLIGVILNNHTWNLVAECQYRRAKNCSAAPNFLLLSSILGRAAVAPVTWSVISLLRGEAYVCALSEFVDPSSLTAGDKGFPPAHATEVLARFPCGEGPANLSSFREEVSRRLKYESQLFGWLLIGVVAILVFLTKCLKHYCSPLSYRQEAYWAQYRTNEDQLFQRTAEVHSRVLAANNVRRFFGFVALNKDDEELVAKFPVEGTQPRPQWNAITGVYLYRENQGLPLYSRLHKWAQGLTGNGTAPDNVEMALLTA
Nature of the assay: co-IP; Myc-EFhd2 and HA-Calhm2 plasmids co-transfected in HEK293T cells, with or without LPS stimulation for 6 h; immunoprecipitation of HA, immunoblotting for Myc and HA.

These are yes or no findings as the source states them, for the method shown. Binding seen in cells or lysates may run through a third protein. Some binding calls cover weakened binding; strength is not graded here. Where a sequence is shown, tags or fusion partners need not be part of it.

B1: Myc-tagged EFhd2 (protein, UniProt Q9D8Y0 1-240)
chain: MATDELASKLSRRLQMEGEGGEATEQPGLNGAAAAAAAEAPDETAQALGSADDELSAKLLRRADLNQGIGEPQSPSRRVFNPYTEFKEFSRKQIKDMEKMFKQYDAGRDGFIDLMELKLMMEKLGAPQTHLGLKSMIQEVDEDFDSKLSFREFLLIFRKAAAGELQEDSGLQVLARLSEIDVSTEGVKGAKNFFEAKVQAINVSSRFEEEIKAEQEERKKQAEEVKQRKAAFKELQSTFK
Turning to B1, the binding entry is recorded as “binds”.
